Reference: publication PMC6939340
These are yes or no findings as the source states them, for the method shown. In cells and extracts the contact can be indirect.

The chains behind the UniProt entries cited, without tags or fusion partners. Where a name states a change or a piece, a line headed by the entry shows the natural chain unless it says otherwise. Residues count along the entry.
UniProt P16070, residues 22-220: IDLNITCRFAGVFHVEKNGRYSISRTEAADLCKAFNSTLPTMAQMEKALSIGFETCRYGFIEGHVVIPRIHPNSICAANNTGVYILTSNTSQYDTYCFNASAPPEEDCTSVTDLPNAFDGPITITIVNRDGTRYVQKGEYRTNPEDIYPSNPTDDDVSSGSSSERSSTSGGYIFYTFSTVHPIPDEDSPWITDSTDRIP

Molecular target: recombinant human CD44-Fc chimera protein (extracellular domain of CD44, amino acids 22-220) (human) (UniProt P16070)
Assay: pull-down; concentrated conditioned medium mixed with 1 ug CD44-Fc, 37 C for 18 h; magnetic beads 2 h at 37 C; washed in 25 mM Tris-HCl pH 7.6, 200 mM NaCl, 0.1% NP-40, 6% glycerol, 1 mM EDTA, 0.5 mM DTT; western blot with anti-SRGN; only the target purified

binding: no binding
B1: SRGN(S/A) mutant, devoid of GAG modification (ligand, UniProt P10124 28-158)
chain: YPTRRARYQWVRCNPDSNSANCLEEKGPMFELLPGESNKIPRLRTDLFPKTRIQDLNRIFPLSEDYAGAGFGAGAGAGAGAGAGFLTEMEQDYQLVDESDAFHDNLRSLDRNLPSDSQDLGQHGLEEDFML
